Measured values: patent US5902815A, “Use of 5HT-2A serotonin agonists to prevent adverse effects of NMDA receptor hypofunction” (priority 1996, dated 1999)

System: NMDA antagonist toxic side effects
Assay: Safener drugs against NMDA antagonist toxic side effects (earlier findings)
Assay type: in vivo
Settings: Applicants' discovery, no data given

CN1[C@@H]2C[C@@H](OC(=O)[C@H](CO)c3ccccc3)C[C@H]1[C@@H]1O[C@@H]12 [scopolamine]
prevention of NMDA antagonist toxic side effects: prevent NMDA antagonists from causing toxic side effects
